Results: the supplement of paper PMC12067093, “Discovery and optimisation of a covalent ligand for TRIM25 and its application to targeted protein ubiquitination” (Chemical Science, 2025)
The other results are listed elsewhere or left out.

The chains behind the UniProt entries cited, without tags or fusion partners. Where a name states a change or a piece, a line headed by the entry shows the natural chain unless it says otherwise.
UniProt P33992: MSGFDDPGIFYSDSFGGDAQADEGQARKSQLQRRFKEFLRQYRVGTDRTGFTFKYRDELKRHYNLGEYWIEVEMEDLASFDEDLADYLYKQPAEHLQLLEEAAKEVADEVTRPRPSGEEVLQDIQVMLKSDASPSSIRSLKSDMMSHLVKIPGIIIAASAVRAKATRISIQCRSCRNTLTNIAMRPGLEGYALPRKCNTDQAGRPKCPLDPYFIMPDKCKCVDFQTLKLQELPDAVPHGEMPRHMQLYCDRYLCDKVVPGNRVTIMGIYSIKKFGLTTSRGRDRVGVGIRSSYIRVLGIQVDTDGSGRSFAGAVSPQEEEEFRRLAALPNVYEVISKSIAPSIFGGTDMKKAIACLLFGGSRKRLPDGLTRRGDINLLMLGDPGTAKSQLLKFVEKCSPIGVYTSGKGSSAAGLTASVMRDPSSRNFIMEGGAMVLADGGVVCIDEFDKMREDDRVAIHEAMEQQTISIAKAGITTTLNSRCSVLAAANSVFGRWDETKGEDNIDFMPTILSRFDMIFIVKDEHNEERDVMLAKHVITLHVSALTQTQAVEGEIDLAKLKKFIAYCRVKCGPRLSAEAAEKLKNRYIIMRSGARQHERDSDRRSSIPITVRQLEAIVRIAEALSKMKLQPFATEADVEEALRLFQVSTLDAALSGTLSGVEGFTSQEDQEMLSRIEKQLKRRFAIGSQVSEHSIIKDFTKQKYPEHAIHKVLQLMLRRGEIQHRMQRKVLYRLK
UniProt Q9HCC0: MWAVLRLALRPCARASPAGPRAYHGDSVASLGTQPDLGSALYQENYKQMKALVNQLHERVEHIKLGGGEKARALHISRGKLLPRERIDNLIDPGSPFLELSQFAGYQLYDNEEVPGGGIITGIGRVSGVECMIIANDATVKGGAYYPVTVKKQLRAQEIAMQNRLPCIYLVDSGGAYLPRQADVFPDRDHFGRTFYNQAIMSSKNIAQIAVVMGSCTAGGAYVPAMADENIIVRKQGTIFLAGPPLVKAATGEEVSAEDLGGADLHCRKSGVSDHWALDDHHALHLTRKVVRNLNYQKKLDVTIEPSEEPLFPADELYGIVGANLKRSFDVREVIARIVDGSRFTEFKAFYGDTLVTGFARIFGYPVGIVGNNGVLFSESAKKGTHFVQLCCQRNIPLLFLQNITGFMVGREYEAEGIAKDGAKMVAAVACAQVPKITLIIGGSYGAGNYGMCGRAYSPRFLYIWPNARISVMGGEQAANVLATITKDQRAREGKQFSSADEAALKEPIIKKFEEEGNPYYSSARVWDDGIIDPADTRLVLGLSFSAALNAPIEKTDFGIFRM
UniProt Q14566: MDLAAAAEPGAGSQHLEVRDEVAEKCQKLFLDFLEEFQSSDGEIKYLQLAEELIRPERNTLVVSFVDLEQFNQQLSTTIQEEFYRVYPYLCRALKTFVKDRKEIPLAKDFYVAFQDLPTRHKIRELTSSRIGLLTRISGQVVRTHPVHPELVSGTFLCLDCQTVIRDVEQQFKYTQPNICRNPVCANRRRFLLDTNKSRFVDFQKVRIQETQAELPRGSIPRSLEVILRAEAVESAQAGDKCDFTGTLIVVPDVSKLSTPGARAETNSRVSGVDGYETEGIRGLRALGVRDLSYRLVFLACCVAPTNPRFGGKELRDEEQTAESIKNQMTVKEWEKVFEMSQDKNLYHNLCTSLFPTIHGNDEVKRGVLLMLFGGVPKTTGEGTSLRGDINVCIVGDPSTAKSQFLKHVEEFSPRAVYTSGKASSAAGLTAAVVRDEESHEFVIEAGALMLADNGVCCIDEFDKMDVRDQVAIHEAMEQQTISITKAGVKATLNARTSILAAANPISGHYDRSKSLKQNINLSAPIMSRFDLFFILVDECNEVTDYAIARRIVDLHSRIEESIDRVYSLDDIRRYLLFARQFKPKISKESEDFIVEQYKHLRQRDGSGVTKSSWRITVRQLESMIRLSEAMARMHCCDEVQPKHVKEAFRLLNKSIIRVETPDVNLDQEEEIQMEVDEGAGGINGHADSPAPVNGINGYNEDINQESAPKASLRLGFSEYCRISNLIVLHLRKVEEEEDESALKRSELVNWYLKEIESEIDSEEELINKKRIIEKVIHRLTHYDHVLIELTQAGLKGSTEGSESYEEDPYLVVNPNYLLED
UniProt P48163: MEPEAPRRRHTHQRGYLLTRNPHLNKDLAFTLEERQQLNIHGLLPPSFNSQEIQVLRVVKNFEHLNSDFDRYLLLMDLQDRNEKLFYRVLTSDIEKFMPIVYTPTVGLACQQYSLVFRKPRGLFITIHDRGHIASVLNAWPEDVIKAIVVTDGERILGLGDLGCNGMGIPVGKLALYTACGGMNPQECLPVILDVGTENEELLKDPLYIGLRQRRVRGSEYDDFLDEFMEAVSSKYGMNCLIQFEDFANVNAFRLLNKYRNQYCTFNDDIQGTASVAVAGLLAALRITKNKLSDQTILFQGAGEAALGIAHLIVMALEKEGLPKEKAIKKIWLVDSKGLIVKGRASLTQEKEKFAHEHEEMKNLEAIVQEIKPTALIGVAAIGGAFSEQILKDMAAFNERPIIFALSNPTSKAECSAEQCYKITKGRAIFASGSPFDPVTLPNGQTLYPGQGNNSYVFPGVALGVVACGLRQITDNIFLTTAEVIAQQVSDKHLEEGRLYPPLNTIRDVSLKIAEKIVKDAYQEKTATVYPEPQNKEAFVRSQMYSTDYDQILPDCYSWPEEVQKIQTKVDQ
UniProt Q9NRN9: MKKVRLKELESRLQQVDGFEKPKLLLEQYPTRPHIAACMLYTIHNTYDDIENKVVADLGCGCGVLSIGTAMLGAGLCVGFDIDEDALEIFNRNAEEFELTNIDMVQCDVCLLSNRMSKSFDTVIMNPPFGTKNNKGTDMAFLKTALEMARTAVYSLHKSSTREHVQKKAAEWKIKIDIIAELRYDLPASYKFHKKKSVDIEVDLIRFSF
UniProt P50579: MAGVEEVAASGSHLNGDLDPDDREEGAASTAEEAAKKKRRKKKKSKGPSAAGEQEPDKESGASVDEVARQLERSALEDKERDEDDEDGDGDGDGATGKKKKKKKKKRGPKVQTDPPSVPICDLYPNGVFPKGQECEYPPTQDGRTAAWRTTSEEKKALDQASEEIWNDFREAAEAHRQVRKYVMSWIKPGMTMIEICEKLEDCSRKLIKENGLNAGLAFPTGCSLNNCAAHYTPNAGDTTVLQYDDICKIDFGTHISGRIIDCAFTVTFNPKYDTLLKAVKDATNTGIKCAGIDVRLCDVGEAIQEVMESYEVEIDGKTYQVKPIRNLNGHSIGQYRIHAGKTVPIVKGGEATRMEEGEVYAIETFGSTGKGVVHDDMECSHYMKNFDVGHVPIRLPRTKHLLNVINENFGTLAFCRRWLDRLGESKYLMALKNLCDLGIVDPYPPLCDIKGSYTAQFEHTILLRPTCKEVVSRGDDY
UniProt Q9Y316: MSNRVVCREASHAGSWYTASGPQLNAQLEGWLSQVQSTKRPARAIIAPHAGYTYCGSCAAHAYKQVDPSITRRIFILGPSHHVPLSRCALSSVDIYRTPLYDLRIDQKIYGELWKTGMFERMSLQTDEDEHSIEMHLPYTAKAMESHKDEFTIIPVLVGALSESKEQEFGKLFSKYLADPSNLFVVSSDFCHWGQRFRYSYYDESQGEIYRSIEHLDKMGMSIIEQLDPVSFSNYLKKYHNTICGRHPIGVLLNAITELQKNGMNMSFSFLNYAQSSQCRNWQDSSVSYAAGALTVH
UniProt Q86U44, whole entry, looked up: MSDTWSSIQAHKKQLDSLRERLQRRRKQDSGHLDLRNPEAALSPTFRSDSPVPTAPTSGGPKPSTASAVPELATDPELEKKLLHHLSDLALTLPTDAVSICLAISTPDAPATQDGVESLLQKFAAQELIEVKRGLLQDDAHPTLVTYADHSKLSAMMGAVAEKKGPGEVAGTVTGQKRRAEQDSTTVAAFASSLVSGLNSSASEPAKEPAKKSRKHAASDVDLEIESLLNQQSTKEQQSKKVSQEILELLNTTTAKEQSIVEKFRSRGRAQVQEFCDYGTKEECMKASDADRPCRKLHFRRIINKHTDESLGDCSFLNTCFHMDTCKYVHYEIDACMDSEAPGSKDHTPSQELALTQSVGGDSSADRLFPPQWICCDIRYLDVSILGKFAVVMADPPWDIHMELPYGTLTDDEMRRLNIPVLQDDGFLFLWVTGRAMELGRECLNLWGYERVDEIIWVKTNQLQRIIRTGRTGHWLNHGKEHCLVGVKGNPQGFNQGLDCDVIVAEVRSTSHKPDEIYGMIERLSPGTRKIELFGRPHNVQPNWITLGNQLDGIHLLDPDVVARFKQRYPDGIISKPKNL
UniProt Q10469: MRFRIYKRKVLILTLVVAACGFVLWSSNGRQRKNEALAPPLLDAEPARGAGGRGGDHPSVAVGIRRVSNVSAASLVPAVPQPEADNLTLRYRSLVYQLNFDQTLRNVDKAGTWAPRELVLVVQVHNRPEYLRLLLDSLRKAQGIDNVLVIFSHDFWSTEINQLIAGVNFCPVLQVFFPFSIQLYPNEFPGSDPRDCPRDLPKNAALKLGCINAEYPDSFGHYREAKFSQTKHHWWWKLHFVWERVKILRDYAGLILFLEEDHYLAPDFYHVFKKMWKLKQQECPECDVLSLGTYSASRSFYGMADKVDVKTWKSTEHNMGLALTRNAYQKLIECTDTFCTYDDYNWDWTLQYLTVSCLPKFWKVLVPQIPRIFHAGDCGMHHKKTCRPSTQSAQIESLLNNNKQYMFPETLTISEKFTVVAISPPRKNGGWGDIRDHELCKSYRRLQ
UniProt Q7L2J0: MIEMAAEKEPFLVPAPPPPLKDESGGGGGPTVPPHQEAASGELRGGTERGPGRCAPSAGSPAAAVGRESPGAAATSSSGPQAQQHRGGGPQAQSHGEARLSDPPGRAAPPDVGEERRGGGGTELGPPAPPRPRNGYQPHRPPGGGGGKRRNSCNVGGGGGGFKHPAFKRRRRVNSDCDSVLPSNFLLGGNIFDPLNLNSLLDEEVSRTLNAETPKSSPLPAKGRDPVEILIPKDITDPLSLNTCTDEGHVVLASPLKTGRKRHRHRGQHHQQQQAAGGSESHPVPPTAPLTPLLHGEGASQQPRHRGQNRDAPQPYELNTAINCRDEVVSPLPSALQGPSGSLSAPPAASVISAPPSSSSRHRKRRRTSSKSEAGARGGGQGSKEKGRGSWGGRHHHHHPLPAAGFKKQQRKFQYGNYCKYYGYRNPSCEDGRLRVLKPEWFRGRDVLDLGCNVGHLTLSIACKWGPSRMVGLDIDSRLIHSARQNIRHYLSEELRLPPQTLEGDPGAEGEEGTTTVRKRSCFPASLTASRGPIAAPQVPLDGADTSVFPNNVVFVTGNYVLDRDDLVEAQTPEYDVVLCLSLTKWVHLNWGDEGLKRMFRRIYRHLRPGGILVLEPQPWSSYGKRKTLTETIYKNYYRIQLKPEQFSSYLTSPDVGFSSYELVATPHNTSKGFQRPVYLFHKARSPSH
UniProt Q6P2C8: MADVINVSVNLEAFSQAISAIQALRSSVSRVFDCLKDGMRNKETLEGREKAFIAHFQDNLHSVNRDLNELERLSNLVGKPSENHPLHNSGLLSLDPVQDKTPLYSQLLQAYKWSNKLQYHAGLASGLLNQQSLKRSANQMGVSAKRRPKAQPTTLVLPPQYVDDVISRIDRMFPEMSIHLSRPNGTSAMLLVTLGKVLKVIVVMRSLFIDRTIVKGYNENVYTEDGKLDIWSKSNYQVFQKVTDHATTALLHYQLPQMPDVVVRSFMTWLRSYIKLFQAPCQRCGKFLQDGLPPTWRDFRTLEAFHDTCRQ

Compound: CC1Cc2ccccc2N1C(=O)C1CCCN(C1)C(=O)CCl (mixture of isomers) [TRIM25 ligand 11 (diastereomer mixture)]
Experiment: probe-labelled cysteine peptide fold change vs DMSO (competition) (log2 fold change); higher = less target engagement (more negative = stronger competition)
Conditions: THP-1, incubation time: 4 h
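Note: competitive chemoproteomic profiling in live THP-1 cells with an iodoacetamide desthiobiotin (IA-DTB) probe, comparing probe-labelled peptide intensities in compound-treated cells against DMSO-treated controls.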

Target | probe-labelled cysteine peptide fold change (10 µM) | probe-labelled cysteine peptide fold change (50 µM)
METAP1_P53582_22+25_LQCPTCIK (UniProt P53582) | 0.0271 | -0.0727
MCM5_P33992_397_CSPIGVYTSGK (UniProt P33992) | -0.0957 | 0.18
MCCC2_Q9HCC0_391_KGTHFVQLCCQR (UniProt Q9HCC0) | 0.028 | 0.1
MCM6_Q14566_158+161_THPVHPELVSGTFLCLDCQTVIR (UniProt Q14566) | 0.0861 | -0.188
ME1_P48163_240_YGMNCLIQFEDFANVNAFR (UniProt P48163) | 0.11 | 0.112
METTL5_Q9NRN9_110_NAEEFELTNIDMVQCDVCLLSNR (UniProt Q9NRN9) | 0.194 | -0.162
METAP2_P50579_416_HLLNVINENFGTLAFCR (UniProt P50579) | -0.0483 | -0.0481
MEMO1_Q9Y316_244_KYHNTICGR (UniProt Q9Y316) | -0.0183 | 0.17
METTL3_Q86U44_320+326_HTDESLGDCSFLNTCFHMDTCK (UniProt Q86U44) | 0.097 | 0.365
MGAT2_Q10469_378_IFHAGDCGMHHK (UniProt Q10469) | -0.0585 | -0.21
MEPCE_Q7L2J0_452_DVLDLGCNVGHLTLSIACK (UniProt Q7L2J0) | 0.295 | 0.0215
MCM2_P49736_406_DAILLADLVDSCK (UniProt P49736) | 0.14 | 0.0471
MED27_Q6P2C8_34_VFDCLK (UniProt Q6P2C8) | -0.114 | 0.17
MGAT2_Q10469_440_DHELCK (UniProt Q10469) | 0.242 | 0.194
